Experimental data from US10662168B2, “Compounds for treating parasitic infections” (University of Maryland, College Park, priority 2015, dated 2020).
Some results were stated once for a whole list of compounds, not compound by compound.

Test system: intracellular L. donovani
Assay: Intra-macrophage L. donovani in BMDMs, DAPI staining
Assay type: cell-based
Conditions: 15 μM, 72 h

## Cc1ccc([C@]2(NCCN(C)C)OC(=O)c3cccc(F)c32)cc1C [FX104]
  intracellular L. donovani parasites killed: 50-70%
